Not every detail of the peptide structures is certain; ends, links or a residue may be inferred. Ends that are not written are not given here.
Legend:
[1] = tested on: gamma interferon-induced NO production in epidermal keratinocytes; assay: Inhibition of gamma interferon-induced nitric oxide production in keratinocytes (Griess reaction); assay type: cell-based; conditions: 48 hours, gamma-interferon 300 U/ml
From the text: The study method chosen is similar to that published in the reference Tsai et al. (Tsai et al, Inhibition of inflammatory nitric oxide production and epidermis damages by Saccharomycopsis Ferment Filtrate. J Dermatol Sci 2006 June 42 (3): 249-57. Laskin, Multifunctional Role of Nitric Oxide in Inflammation, Trends Endocrinol Metab 1994; 5:377-382. Lyons, Emerging Roiles of Nitric Oxide in Inflammation, Hospital Practice, Jul. 15, 1996: 69-86.)
The objective of the study was to investigate the inhibition effect of Pal-hexapeptide (SEQ ID NO: 2, in palmitylated form) on gamma interferon-induced NO production in epidermal keratinocytes in culture.
Anti-inflammatory effect was observed as a reduction of nitric oxide production in keratinocytes. Keratinocytes were incubated 48 hours with gamma-interferon (300 U/ml) alone (as control) or with gamma-interferon together with different concentrations (0.1 μM, 1 μM, 10 μM, 100 μM and 1000 μM) of Pal-hexapeptide. Gamma interferon plus aminoguanidine (10 mg/mL) was used as positive control. The amount of NO production was detected by Griess reaction. Nitric oxide readily oxides to nitrite in aqueous medium, and this reaction was measured as nitrite accumulation in the medium. […] The optical density of the wells were read using a Tibertek Mutiskan (MCC microplate reader at a wavelength of 540 nm, subtracting the absorbance at a reference wavelength of 620 nm.) A printout of the absorbance values was generated by the plate reader, and data were entered into an EXCEL spreadsheet for analysis. The average absorbance and standard deviations were expressed as percent of control absorbances.

[2] = tested on: cellular peroxide levels in human epidermal keratinocytes; assay: Cellular peroxide levels in keratinocytes, DCFH-DA dye and flow cytometry, with and without exogenous H2O2; assay type: cell-based; conditions: listed as hexapeptide; for % Control (no H2O2), peroxide level: endogenous peroxide; for % Control (with H2O2), peroxide level: exogenous H2O2 added
Procedure: Hydrogen peroxide can induce damages to skin cells. The dermal protective efficacy of Pal-hexapeptide was assessed by measuring basal peroxide levels in the presence and absence of the compound.
Basal peroxide production, generated by normal cellular metabolism, induce gradual development of low levels of peroxide-specific cellular fluorescence.
Extracellular peroxides (e.g., H2O2 added exogenously) can permeate the cell membrane and cause a rapid and dramatic increase in the peroxide-specific fluorescence of the cell. Cellular peroxides levels can be measured by flow cytometry using the peroxide-specific dye, 2′,7′-dichlorofluorescein diacetate (DCFH-DA). DCFH-DA is initially non-fluorescent and is rapidly concentrated within living cells by an enzyme-dependent process. […] The results of the assay indicates if a test compound functions as an oxidant or an anti-oxidant in a cellular system. If the test article functions as an anti-oxidant, this assay can also be used to determine if the test compound can permeate the cell membrane to quench intracellular peroxide or if it can only affect extracellular peroxide levels (Bass et al., 1983, J. Immunol. 130:1910-1917; Bombick et al., 1992, Toxicol. Meth. 2:255-264).
Human primary keratinocytes, generally on the third passage, were seeded in T75 flasks and cultured until 70-80% confluent. A cell suspension was created and these cells were loaded with the dye DCFH-DA. The pre-incubated cells were exposed to dilutions of the Pal-hexapeptide having the amino acid sequence SEQ ID NO: 2 in two triplicate sets per dilution. One triplicate set was incubated with H2O2 (exogenous source of peroxide), and both sets were stained with Propidium Iodide. Cell viability and peroxide production were determined by fluorescence readings on a FACScan flow cytometer. Peroxide value increases or decreases of 25% or more compared to vehicle control values are considered biologically significant.

[3] = tested on: UVA-bleaching of beta-carotene; assay: UVA bleaching of beta-carotene on forearm skin, Color Index by CHROMAMETER; assay type: in vivo; conditions: 0.1% gel on human forearm
Procedure: In-vivo method for assessing the protective effects of cosmetic products. Bleaching of carotenoids have been used to evaluate the auto-oxidation activity of natural products. The relative efficacy of scavengers of lipid peroxyl free radicals after application to the skin was assessed by measuring the UVA-bleaching of beta-carotene as a function of the energy exposure.
A CHROMAMETER colorimeter (TM, Minolta Model CR-300) was used to measure changes in color by expressing the color of measured surfaces numerically in L*a*b* color space which is a system recommended by the CIE (Commission Internationale de I'Eclairage) for skin color assessment. […] The b* value most closely describes the intensity of the orange color of the β-carotene stain and is in direct correlation with the Color Index, I. The CHROMAMETER provides a means by which oxidative damage caused by free radicals and, conversely, the prevention of oxidation by free radical scavengers, can be measured. […] The bleaching and prevention of bleaching by a test material can be measured by the CHROMAMETER. […]
Prior to application of the test materials or beta-carotene, the initial b* parameter was measured using the CHROMAMETER and recorded for all duplicate test sites of the forearm (Baseline). […] After this incubation period, b* measurements were recorded for all sites (Product Baseline). […]

[4] = tested on: hyaluronic acid levels in adult human dermal fibroblast (aHDF) conditioned media; assay: Hyaluronic acid in fibroblast-conditioned medium (HA-ELISA); assay type: cell-based; conditions: 1000 ug/ml, 96 h
From the text: Hyaluronic acid (hyaluronan, HA), a naturally occurring carbohydrate polymer is a key component of connective, epithelial and neural tissues. HA participates in hydrodynamics, movement and proliferation of cells. This test was designed to determine whether a sample of palmitylated and non-palmitylated MNTF hexapeptide has an effect on hyaluronic acid levels in the adult human dermal fibroblast (aHDF) conditioned media.
Adult HDF (facial, passage 2, Cell Applications, San Diego, Calif. cat.#106-05A lot#1392) were plated in high glucose phosphate-free DMEM supplemented with 5% cosmic serum from Hyclone, Utah) at 6,000 cells per well and test materials were added the following day. Test materials were: Pal-Hexapeptide (palmitylated SEQ ID NO:2 as a lyophilized powder labeled APC 341055, lot V08150A1, received from DermaCare Neuroscience Institute), type I sterile water (negative control) and basic fibroblast growth factor (bFGF, positive control). Pal-Hexapeptide was dissolved in water at 20 mg/ml. Final concentrations tested were: 400, 200, 100, 50 and 25 ug/ml for DNP and 5 ng/ml for bFGF (plate 507). […] The HA output was measured by following the generation of a chromophoric reaction product in 96 well plate, with the use of a BioRad microplate reader at 410 nm and the effect of the test materials was determined using the formula: Absorbance 410 (sample)/Absorbance 410 (Zero HA)×100. […]

FSRYAR [GM602, FSRYAR]
nitric oxide production induced by Gamma-interferon, % of the control ([1]; 100 μM): 68%
nitric oxide production induced by Gamma-interferon, % of the control ([1]; 1000 μM): 46%
nitric oxide production induced by Gamma-interferon, % of the control ([1]; 10,000 μM): 42%
% Control (no H2O2), peroxide level ([2]; 1 mM): 73.57%
% Control (with H2O2), peroxide level ([2]; 1 mM): 56.00%
% Control (no H2O2), peroxide level ([2]; 10 mM): 25.02%
% Control (with H2O2), peroxide level ([2]; 10 mM): 14.29%
preventing the bleaching of beta-carotene compared to the beta-carotene control [3]: effective as a free radical scavenger
stimulation of hyaluronic acid in the fibroblast-conditioned medium [4]: 22%

— patent publication US8334253B2, “Cosmetic and dermatological formulations of MNTF peptides” (Dermacare Neuroscience Institute, priority 2008, dated 2012)
